Paper PMC7237858
These are yes or no findings as the source states them, for the method shown. Binding seen in cells or lysates may run through a third protein. A result given as binding can be weak or reduced; the word gives no strength. Tags and fused reporters may be left off the sequences shown.

Molecular target: T1, serine- and arginine-rich splicing factor 3 (SRSF3), HA fusion, wild type (UniProt P84103)
T1 sequence: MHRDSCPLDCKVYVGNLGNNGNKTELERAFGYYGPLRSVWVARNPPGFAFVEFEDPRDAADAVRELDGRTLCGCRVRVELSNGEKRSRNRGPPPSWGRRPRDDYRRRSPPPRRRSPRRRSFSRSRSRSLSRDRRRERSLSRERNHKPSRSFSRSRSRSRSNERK
Assay: co-IP; SRSF3-HA (wild type or mutants) and SRSP-Flag (wild type or mutants) plasmids transfected into HEK293T cells; lysates without RNase A (Figure 4C; RNase not mentioned for the mutant panels); complexes co-IPed with anti-HA or anti-Flag antibodies, partner detected by blot

Substance	binding
SRSP-Flag N-terminus (1-60 aa) (human) (domain or fragment)	binds
SRSP-Flag mutant of the proline-arginine-arginine (PRR) motif (human)	binds
